# Assay results published in patent US20130295106A1.
# No constants are given. Whether binding was seen depends on the method and setting. Some results given as binding are weak or reduced against the parent protein; the word gives no strength. Tags and fused reporters may be left off the sequences shown.
# T1: soluble FZD8-Fc containing the Fri domain (amino acids 1-157 of FZD8 linked in-frame to human IgG1 Fc) (human) (UniProt Q9H461)
# T1 sequence: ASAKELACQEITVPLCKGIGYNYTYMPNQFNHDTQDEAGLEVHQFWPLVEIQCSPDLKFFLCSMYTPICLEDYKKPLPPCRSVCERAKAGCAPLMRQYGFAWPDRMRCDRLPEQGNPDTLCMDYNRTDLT
# T2: FZD8-Fc variant Mut2 (substitution at position 75 in the cleft) (human) (UniProt Q9H461)
# T2 sequence: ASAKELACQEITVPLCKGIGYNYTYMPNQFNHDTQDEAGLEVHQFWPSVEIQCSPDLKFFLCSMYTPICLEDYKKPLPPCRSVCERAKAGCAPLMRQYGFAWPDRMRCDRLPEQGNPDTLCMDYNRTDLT
# Assays:
# [1] = molecular target: T1, soluble FZD8-Fc containing the Fri domain (amino acids 1-157 of FZD8 linked in-frame to human IgG1 Fc) (human); assay: phage ELISA on FZD8-Fc
# [2] = molecular target: T2, FZD8-Fc variant Mut2 (substitution at position 75 in the cleft) (human); assay: phage ELISA on FZD8-Fc Mut2
Binder,binding [1],binding [2]
CPLYFPLYC [clone 3],binds,binds
CPLVWPLIC [clone 4],binds,binds
FGNYLNDVRFLI [clone 6],binds,binds
CPLAWPLIC [clone 8],binds,binds
TNLADIAHWISG [clone 12],binds,binds
CPVKYPLVC [clone 13],binds,binds
CPLRFPLFC [clone 15],binds,binds
CPLAWPLIC [clone 16],binds,binds
CPVAFPLYC [clone 17],binds,binds
CPVNYPLYC [clone 18],binds,binds
CPVKFPLYC [clone 20],binds,binds
CPLTYPLYC [clone 22],binds,binds
CPLRWPLMC [clone 24],binds,binds
CPLQYPLMC [clone 25],binds,binds
CPLSFPLYC [clone 26],binds,binds
CPLNWPLMC [clone 27],binds,binds
DVWWLGSTWLKR [clone 28],binds,
